One molecule from US20140093513A1, “METHODS OF LOWERING PROPROTEIN CONVERSATE SUBTILISIN/KEXIN TYPE 9 (PCSK9)” (Catabasis Pharmaceuticals, Inc., priority 2012, published 2014) can be followed below.

This test deals with ApoE3Leiden mice. The test is described as follows: Plasma cholesterol and triglycerides in ApoE3Leiden mice on Western type diet, 2 and 4 weeks of treatment. It is filed as in vivo. The settings on record: female APOE*3Leiden mice, WTD, I-8 0.75% w/w, atorvastatin 0.0015% w/w in diet. The protocol: The study was conducted using female APOE*3Leiden mice (groups of each n=10) and one untreated reference control group on chow (n=5). To induce dyslipidemia, a high cholesterol Western type diet containing 1% cholesterol, 15% cacao butter, 40.5% sucrose and 1% corn oil (WTD) was fed to the mice for a total experimental period of 20 weeks (of which 4 weeks are a run-in period). To prevent oxidation of the test compound (I-8), 30 mg/kg alpha-tocopherol was added to the high cholesterol diets, i.e. also in the high cholesterol diet control.
In the first 4 weeks (run-in period), a pro-atherogenic state of dyslipidemia characterized by elevated plasma cholesterol levels (about 15-20 mM) was induced in all mice by feeding them an atherogenic diet containing 1% cholesterol. The mice were then separated into a control group (no treatment) and three treatment groups: i) compound I-8, ii) atorvastatin and iii) compound I-8+atorvastatin as described below. The dyslipidemic mice were grouped on the basis of plasma cholesterol at t=0 assayed in 4 h fasting blood. Mice with low cholesterol after the run-in period were excluded so that homogenous experimental groups were obtained. A group of reference mice (n=5) remained on a chow diet during the complete study period (normolipidemic reference mice).
The doses of the test compounds were as follows: • Compound I-8: 0.75% w/w in diet. • Atorvastatin: 0.0015% w/w in diet (to achieve about 20% reduction in plasma cholesterol). • Alpha-tocopherol: 0.0030% w/w in diet The test compounds, sufficient for approx. 3 kg of diet (i.e. 25 g of compound I-8), and alpha-tocopherol (>200 mg) were formulated before the start of the treatment period (t=0), by adding the test compounds to melted, hand warm cocoa butter and mixed for 5 min. This mix was then added to the master mix (containing the rest of the ingredients) and mixed thoroughly. The diet was frozen to −20° C. On the subsequent day, the diet was broken into small pellets (approx 5 g per piece) and freeze dried, and stored in vacuum sealed bags (approx 500 g) at −20° C. until use. […]

In the case of `CC(C)c1c(C(=O)Nc2ccccc2)c(-c2ccccc2)c(-c2ccc(F)cc2)n1CC[C@@H](O)C[C@@H](O)CC(=O)O` [atorvastatin, reference compound], the “plasma cholesterol at t=2 weeks” value (2 weeks of treatment, FIG. 4) is reported as “statistically significant reduction”. Moreover, the “plasma cholesterol after 4 weeks of treatment” value (4 weeks, FIG. 5) is “Comparable level of cholesterol reduction”. For the setting “4 weeks, FIG. 6”, the “plasma triglyceride levels after 4 weeks of treatment” value is “failed to show a statistically significant change”.
